{"sequences": {"note": "Amino acid sequences for entries named in this document (tags omitted). Residues count along the entry.", "UniProt Q92830, residues 497-662": "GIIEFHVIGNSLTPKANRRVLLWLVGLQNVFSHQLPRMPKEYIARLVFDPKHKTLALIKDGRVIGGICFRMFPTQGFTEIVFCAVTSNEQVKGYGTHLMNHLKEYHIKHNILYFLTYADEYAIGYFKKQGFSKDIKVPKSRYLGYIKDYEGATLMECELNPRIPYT"}, "source": "paper PMC6079010", "molecular_target": "His-KAT2A (497–662) (UniProt Q92830)", "experiment": "SEC; bacterially purified His-KAT2A (497–662) on HiPrep 16/60 Sephacryl S-300 High Resolution column; fractions of 3 ml from 18 to 120 ml immunoblotted; both purified", "note": "Results are given in words; binding and its absence hold for the method and conditions named. Some results given as binding are weak or reduced against the parent protein; the word gives no strength."}
{"substance": "His-KAT2A (497–662) (from UniProt Q92830 497-662) (domain or fragment)", "values": [{"measurement": "binding", "value": "binds"}]}
